Data source: PubChem BioAssay AID686938 (Drosophila RNAi Screening Center, 2013)
The deposit covers about 23,000 reagents; this is an unselected part of those with a known target gene and a result. Over the whole deposit, 75 (0.33%) got an active call. 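Raw plate signals without normalisation; calls rest on plate z-scores that were not deposited; ratio present for only 364 wells.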 A plus sign joins genes that one reagent is predicted to hit. Not stated in the record: the dose of the treatment.

Screen: 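Fly genes required for calcium entry once internal stores are emptied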 (primary screen)
System: Drosophila S2R+ cells
Knock-down reagent: long dsRNA against Drosophila genes, about 0.25 µg dsRNA per well, roughly 10,000 cells
Time to read-out: 5 days of knock-down before the calcium assay
Treatment: thapsigargin (SERCA pump blocker) to empty calcium stores; entry signal taken 4 min after adding it
Read-out: 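Duplicate raw fluo-4 intensities per well from a plate reader, at rest and four minutes after thapsigargin emptied calcium stores; entry-to-rest ratio filled for only some wells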
Scale: calcium entry signal: higher = stronger calcium signal after store depletion; entry to resting ratio: higher = more calcium entry relative to resting level; resting calcium signal: higher = higher resting calcium signal
Rule for the call: 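Called when the plate z-score of the entry-to-rest ratio, mean of duplicates, falls below −3; wells with low overall dye signal (Fmax z below −2) or more than five off-targets excluded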
Calls: active = strongly reduced calcium entry; inactive = no strong reduction

| target | dsRNA | calcium entry signal, replicate 1 (fluorescence units) | calcium entry signal, replicate 2 (fluorescence units) | entry to resting ratio | resting calcium signal, replicate 1 (fluorescence units) | resting calcium signal, replicate 2 (fluorescence units) | call |
| --- | --- | --- | --- | --- | --- | --- | --- |
| CR33319 (GeneID 3772025) | DRSC01826 | 3.51e7 | 6.33e7 | – | 1.48e7 | 2.52e7 | inactive |
| CG2816 (GeneID 33595) | DRSC00539 | 3.46e7 | 2.90e7 | – | 1.72e7 | 1.47e7 | inactive |
| rha (GeneID 43071) | DRSC17044 | 2.78e7 | 3.00e7 | – | 1.25e7 | 1.45e7 | inactive |
| CG9331 (GeneID 35347) | DRSC03206 | 3.32e7 | – | – | 1.63e7 | – | inactive |
| CG9777 (GeneID 32633) | DRSC20208 | 2.85e7 | 2.92e7 | – | 1.50e7 | 1.31e7 | inactive |
| CG17618 (retired record) + CG45049 | DRSC16163 | 4.90e7 | 6.23e7 | – | 2.15e7 | 2.73e7 | inactive |
| CG17618 (retired record) + CG45049 | DRSC22054 | 2.98e7 | 5.95e7 | – | 1.63e7 | 3.20e7 | inactive |
| CG17618 (retired record) + CG45049 | DRSC23175 | 5.50e7 | 3.04e7 | – | 2.58e7 | 1.32e7 | inactive |
| tna (GeneID 39217) | DRSC09053 | 4.73e7 | 4.87e7 | – | 2.40e7 | 2.12e7 | inactive |
| tna (GeneID 39217) | DRSC10937 | 1.95e7 | 2.66e7 | – | 1.00e7 | 1.07e7 | inactive |
| tna (GeneID 39217) | DRSC23236 | 3.30e7 | 3.42e7 | – | 1.61e7 | 1.62e7 | inactive |
| CG42673 (GeneID 39111) | DRSC08989 | 4.75e7 | 4.44e7 | – | 2.60e7 | 2.00e7 | inactive |
| CG42673 (GeneID 39111) | DRSC08991 | 2.84e7 | 4.08e7 | – | 1.89e7 | 2.45e7 | inactive |
| CG42673 (GeneID 39111) | DRSC10177 | 2.61e7 | 3.22e7 | – | 1.33e7 | 1.34e7 | inactive |
| CG42673 (GeneID 39111) | DRSC10264 | 2.37e7 | 2.98e7 | – | 1.23e7 | 1.24e7 | inactive |
| CG42673 (GeneID 39111) | DRSC10353 | 3.44e7 | 4.44e7 | – | 1.62e7 | 1.79e7 | inactive |
| CG42673 (GeneID 39111) | DRSC10354 | 2.79e7 | 4.19e7 | – | 1.53e7 | 1.86e7 | inactive |
| Elal (GeneID 42970) | DRSC16662 | 4.00e7 | 3.47e7 | – | 1.77e7 | 1.48e7 | inactive |
| CG31156 (GeneID 42669) | DRSC15753 | 4.34e7 | 2.84e7 | – | 2.01e7 | 1.38e7 | inactive |
| CG31156 (GeneID 42669) | DRSC15755 | 4.06e7 | 3.32e7 | – | 1.85e7 | 1.37e7 | inactive |
| endos (GeneID 39554) | DRSC10658 | 2.73e7 | 3.26e7 | – | 1.20e7 | 2.21e7 | inactive |
| Gr89a (GeneID 42007) | DRSC15023 | 3.06e7 | 5.20e7 | – | 1.70e7 | 4.94e7 | inactive |
| Gr10b (GeneID 32085) | DRSC19477 | 3.23e7 | 3.69e7 | – | 1.64e7 | 1.88e7 | inactive |
| DIP2 (GeneID 252479) | DRSC08582 | 4.14e7 | 4.24e7 | – | 1.92e7 | 2.11e7 | inactive |
| CR46300 (GeneID 3885581) | DRSC12467 | 2.64e7 | 3.91e7 | – | 1.22e7 | 1.75e7 | inactive |
| kek3 (GeneID 34912) | DRSC03553 | 4.13e7 | 4.70e7 | – | 1.97e7 | 2.62e7 | inactive |
| kek3 (GeneID 34912) | DRSC22830 | 2.74e7 | 4.70e7 | – | 1.50e7 | 2.13e7 | inactive |
| CG3939 (GeneID 31295) | DRSC18498 | 3.81e7 | 5.34e7 | 2 | 1.87e7 | 2.04e7 | inactive |
| side-V (GeneID 37679) | DRSC04188 | 4.18e7 | 5.49e7 | – | 2.07e7 | 2.72e7 | inactive |
| side-V (GeneID 37679) | DRSC04189 | 5.44e7 | 3.22e7 | – | 2.63e7 | 1.60e7 | inactive |
| side-V (GeneID 37679) | DRSC22266 | 2.84e7 | 4.65e7 | – | 1.47e7 | 2.18e7 | inactive |
| ValRS-m (GeneID 39023) | DRSC10535 | 3.96e7 | 4.50e7 | – | 1.81e7 | 1.80e7 | inactive |
| CG31915 (GeneID 319025) | DRSC03000 | 2.20e7 | 2.28e7 | – | 1.05e7 | 1.00e7 | inactive |
| qsm (GeneID 47065) | DRSC05896 | 2.41e7 | 3.36e7 | – | 1.16e7 | 1.63e7 | inactive |
| qsm (GeneID 47065) | DRSC06393 | 1.74e7 | 3.17e7 | – | 1.01e7 | 1.45e7 | inactive |
| Mst84Dd (GeneID 40886) | DRSC12600 | 3.29e7 | 2.26e7 | – | 1.63e7 | 1.23e7 | inactive |
| CG12971 (GeneID 40365) | DRSC11681 | 3.12e7 | 3.96e7 | – | 1.53e7 | 1.69e7 | inactive |
| CG15014 (GeneID 38533) | DRSC08468 | 1.78e7 | 4.83e7 | – | 8.32e6 | 1.87e7 | inactive |
| CG10841 (GeneID 41665) | DRSC14271 | 3.31e7 | 4.26e7 | – | 1.60e7 | 1.87e7 | inactive |
| para (GeneID 32619) | DRSC19141 | 3.63e7 | 4.60e7 | – | 1.82e7 | 2.02e7 | inactive |
| para (GeneID 32619) | DRSC20360 | 2.00e7 | 2.62e7 | – | 1.16e7 | 1.17e7 | inactive |

Only “calcium entry signal, replicate 2 (fluorescence units)”, for 3 of the entries above:
CG31156 (GeneID 42669) [DRSC15755]	3.32e7
endos (GeneID 39554) [DRSC10658]	3.26e7
Gr89a (GeneID 42007) [DRSC15023]	5.20e7
